# Results are given in words; binding and its absence hold for the method and conditions named. Binding calls can cover weak binding; strength is not graded here.
# Columns and labels:
# [1] = target: T1, Curling Leaf 1 (CL1), MYB transcription factor of the KANADI family (rice (Oryza sativa L.)) (UniProt Q0J235); assay: two-hybrid; library screen: pGBKT7-CL1 as bait against a rice whole-tissue yeast library; selection on medium lacking histidine and adenine; 45 clones, 8 nonredundant genes
# T1 sequence: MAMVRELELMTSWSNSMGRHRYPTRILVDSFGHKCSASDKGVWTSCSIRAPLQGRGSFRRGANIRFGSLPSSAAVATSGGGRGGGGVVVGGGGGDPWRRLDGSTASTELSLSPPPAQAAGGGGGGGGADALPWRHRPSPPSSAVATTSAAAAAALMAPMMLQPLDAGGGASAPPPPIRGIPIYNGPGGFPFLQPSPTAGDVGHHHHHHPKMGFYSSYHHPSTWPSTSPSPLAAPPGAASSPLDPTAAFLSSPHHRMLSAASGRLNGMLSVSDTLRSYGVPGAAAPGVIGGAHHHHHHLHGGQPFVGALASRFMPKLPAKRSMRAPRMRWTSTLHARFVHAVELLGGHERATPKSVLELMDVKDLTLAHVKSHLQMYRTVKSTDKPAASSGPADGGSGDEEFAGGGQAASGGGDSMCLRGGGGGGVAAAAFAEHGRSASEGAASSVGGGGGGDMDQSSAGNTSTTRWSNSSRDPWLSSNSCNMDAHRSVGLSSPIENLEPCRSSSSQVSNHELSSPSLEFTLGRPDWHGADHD
# [2] = target: T1, Curling Leaf 1 (CL1), MYB transcription factor of the KANADI family (rice (Oryza sativa L.)); assay: two-hybrid; pairwise verification: AD vector with the target gene co-transformed with BD-CL1 into yeast; 30 °C; cultures spotted on SD/-Leu-Trp and SD/-Leu-Trp-His-Ade
Substance,binding [1],binding [2]
"OsMFS1 (MFS), called AP2/ERF protein MFS in the abstract (rice (Oryza sativa L.))",binds,binds
"SRS5, alpha-tubulin protein (rice (Oryza sativa L.))",binds,binds

# — paper PMC10490398
